The results in this text go back to article PMC11882097.

The target in this assay is T1, NbSGS3-Y^C (N. benthamiana) (UniProt X4YFK1).
T1 sequence: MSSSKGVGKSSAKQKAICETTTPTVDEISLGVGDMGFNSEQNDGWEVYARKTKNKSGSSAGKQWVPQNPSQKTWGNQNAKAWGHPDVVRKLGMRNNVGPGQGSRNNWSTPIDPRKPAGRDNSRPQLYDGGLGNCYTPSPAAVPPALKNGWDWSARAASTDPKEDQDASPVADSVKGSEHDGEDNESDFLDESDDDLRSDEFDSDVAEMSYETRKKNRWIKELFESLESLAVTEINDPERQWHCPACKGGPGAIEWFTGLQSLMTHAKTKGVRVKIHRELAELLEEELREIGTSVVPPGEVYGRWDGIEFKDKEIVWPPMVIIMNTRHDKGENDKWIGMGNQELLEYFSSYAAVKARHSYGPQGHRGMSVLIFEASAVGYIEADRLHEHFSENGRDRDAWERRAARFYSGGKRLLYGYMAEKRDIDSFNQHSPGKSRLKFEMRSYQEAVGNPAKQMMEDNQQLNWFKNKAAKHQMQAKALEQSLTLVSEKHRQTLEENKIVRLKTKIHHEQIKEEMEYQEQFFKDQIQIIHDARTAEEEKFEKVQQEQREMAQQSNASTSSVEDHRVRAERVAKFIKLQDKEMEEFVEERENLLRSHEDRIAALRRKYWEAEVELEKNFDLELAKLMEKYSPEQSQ
The experiment in a line: split reporter; BiFC of YN and YC fusions co-agroinfiltrated 1:1 into N. benthamiana leaves; YFP signal by confocal microscopy at 48-72 hpi.

Results are given in words; binding and its absence hold for the method and conditions named. Binding seen in cells or lysates may run through a third protein. Some binding calls cover weakened binding; strength is not graded here.

B1: NbSGS3-Y^N (protein, UniProt X4YFK1 1-635)
chain: T1 sequence
As for B1, the binding entry is on record as “binds”.
